No constants are given. Whether binding was seen depends on the method and setting. Some entries that bind do so weakly or less than the wild type.

The target of this experiment is Recombinant Cynomolgus IL-13 Protein, His Tag (SINO BIOLOGICAL, Cat. 11057-C07H) (cynomolgus monkey). Kind of experiment: SPR. On the technique in general: SPR reads the build-up and loss of mass on a sensor chip optically.

B1: Construct 139 (antibody, human IgG4, kappa)
heavy: EVQLLESGGGLVQPGGSLRLSCAASGFSLNAYSVNWVRQAPGKGLEWLGMIWGDGKIVYNSALKSRLTISKDSSKNTVYLQMNSLRAEDTAVYYCAGDGYYPYAMDNWGQGTTVTVSSASTKGPSVFPLAPCSRSTSESTAALGCLVKDYFPEPVTVSWNSGALTSGVHTFPAVLQSSGLYSLSSVVTVPSSSLGTKTYTCNVDHKPSNTKVDKRVESKYGPPCPSCPAPEFLGGPSVFLFPPKPKDTLMISRTPEVTCVVVDVSQEDPEVQFNWYVDGVEVHNAKTKPREEQFNSTYRVVSVLTVLHQDWLNGKEYKCKVSNKGLPSSIEKTISKAKGQPREPQVYTLPPSQEEMTKNQVSLTCLVKGFYPSDIAVEWESNGQPENNYKTTPPVLDSDGSFFLYSRLTVDKSRWQEGNVFSCSVLHEALHSYTQKSLSLSLGK
light: DIQLTQSPSSLSASVGDRVTITCRASKSVDSYGNSFMHWYQQKPGKAPKLLIYLASELESGVPSRFSGSGSGTDFTLTISSLQPEDFATYYCQQNNEDPRTFGGGTKVEIKRTVAAPSVFIFPPSDEQLKSGTASVVCLLNNFYPREAKVQWKVDNALQSGNSQESVTEQDSKDSTYSLSSTLTLSKADYEKHKVYACEVTHQGLSSPVTKSFNRGEC
In the case of B1, the binding result is recorded as “binds”.

B2: Construct 143 (antibody, human IgG4, kappa)
heavy: EVQLQESGPGLVKPSETLSLTCTVSGFSLNAYSVNWIRQPPGKGLEWLGMIWGDGKIVYNSALKSRLTISKDSSKNQVSLKLSSVTAADTAVYYCAGDGYYPYAMDNWGQGTTVTVSSASTKGPSVFPLAPCSRSTSESTAALGCLVKDYFPEPVTVSWNSGALTSGVHTFPAVLQSSGLYSLSSVVTVPSSSLGTKTYTCNVDHKPSNTKVDKRVESKYGPPCPSCPAPEFLGGPSVFLFPPKPKDTLMISRTPEVTCVVVDVSQEDPEVQFNWYVDGVEVHNAKTKPREEQFNSTYRVVSVLTVLHQDWLNGKEYKCKVSNKGLPSSIEKTISKAKGQPREPQVYTLPPSQEEMTKNQVSLTCLVKGFYPSDIAVEWESNGQPENNYKTTPPVLDSDGSFFLYSRLTVDKSRWQEGNVFSCSVLHEALHSYTQKSLSLSLGK
light: B1 light
As for B2, the binding result is “binds”.
